US7273964B1, “Non-human transgenic animals for the study of neurodegenerative syndromes” (Scuola Internazionale Superiore Di Studi Avanzati, priority 1999, dated 2007)
At least one compound was matched to its structure with a doubt left.

System: visual cortex slices of anti-NGF mice
Experiment: Long Term Potentiation (LTP) in visual cortex slices, electrophysiological recordings
Set-up: species or system mouse
Experimental: Visual cortex slices preparation and electrophysiological recordings. Postsynaptic field potentials were recorded in […] in vitro slices containing visual cortex, following previously described methods (Kirkwood and Bear, 1994). Anti-NGF and transgenic control mice were deeply anesthetized with urethane and then decapitated. The brain was rapidly removed and visual cortex slices (400 μm) prepared and superfused in a submerged recording chamber at 33° C. with gassed artificial cerebrospinal fluid (aCSF) at a rate of 4 ml/min.
The amplitude of the maximum negative field potential in layer 2/3 was used as a measure of the evoked population excitatory current. LTP was induced by 3 trains of high frequency stimulation (HFS, 100 Hz, 1 s). Experiments were performed at different postnatal ages 6 months, when the functional maturation of the visual cortex is completed. Acetylcholine dependence of LTP was investigated by locally delivering through the recording pipette. The amplitude of the maximum negative field potential in layer 2/3 was used as a measure of the evoked population excitatory current. The magnitude of both LTP was measured starting 30 min after the end of the corresponding conditioning protocol. Data for each experimental group were pooled and expressed as percentage change from control baseline, PCCB±S.E.M. Statistical comparison was done by applying a t-test and Mann-Whitney Rank Sum Test between baseline and LTP mean values.

With `CC(=O)OCC[N+](C)(C)C` [acetylcholine] as the compound, how does the “rescue of LTP abnormality” value (100 µM in the recording chamber) read?
The value was “rescued”.

And the “LTP in slices of L-thyroxine treated anti-NGF mice” value (acetylcholine 10 µm, mice treated with L-thyroxine for 4 weeks)?
Its value is “sufficient to obtain normal levels of LTP”.

And the “rescue of LTP abnormality” value (lower concentration (10 µM))?
Its value is “ineffective”.
